Measured values as given in US20170319690A1 (AGENCY FOR SCIENCE TECHNOLOGY AND RESEARCH, published 2017).
Results are given in words; binding and its absence hold for the method and conditions named. Some binding calls cover weakened binding; strength is not graded here. Blank lines part the entries; values can stand above or below the binder they belong to.

Sequences of proteins named here, by UniProt entry; tags and fusion partners are left off. A change or cut given only in a name is not applied to a line headed by its entry.
UniProt Q9NZQ7: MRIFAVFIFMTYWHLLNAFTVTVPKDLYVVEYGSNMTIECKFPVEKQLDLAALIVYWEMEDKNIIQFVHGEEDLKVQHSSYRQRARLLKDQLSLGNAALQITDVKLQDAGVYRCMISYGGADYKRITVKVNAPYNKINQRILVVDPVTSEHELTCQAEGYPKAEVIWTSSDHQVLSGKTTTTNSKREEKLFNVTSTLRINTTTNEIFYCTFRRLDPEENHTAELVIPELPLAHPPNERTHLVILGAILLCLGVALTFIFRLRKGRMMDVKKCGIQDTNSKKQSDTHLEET
UniProt Q9EP73: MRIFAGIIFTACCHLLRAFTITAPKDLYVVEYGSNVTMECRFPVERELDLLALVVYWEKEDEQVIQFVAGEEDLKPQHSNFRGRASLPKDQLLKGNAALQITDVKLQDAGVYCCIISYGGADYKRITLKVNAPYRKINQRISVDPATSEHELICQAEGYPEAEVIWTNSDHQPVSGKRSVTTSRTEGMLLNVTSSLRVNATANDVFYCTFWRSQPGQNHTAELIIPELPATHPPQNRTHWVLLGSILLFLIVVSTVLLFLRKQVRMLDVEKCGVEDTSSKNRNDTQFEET

Key:
[1] = biological target: PD-L1 (blocking ELISA of Example 13) (Homo sapiens (Human)) (UniProt Q9NZQ7); assay: blocking ELISA; antibody pre-incubated with PD-L1, added to plate-coated PD-1 (the blocked partner); PD-1-bound PD-L1 detected with an antibody
[2] = biological target: human PD-L1 coupled to human Fc (human) (UniProt Q9NZQ7); assay: ELISA, PD-L1-Fc coated, Fab detected with anti-human Fab-HRP
[3] = biological target: murine PD-L1 coupled to human Fc (murine; human) (UniProt Q9EP73); assay: as above
[4] = biological target: T1, biotinylated human PD-L1 (human, UniProt Q9NZQ7 19-239, limits assumed, biotinylated); assay: blocking ELISA; biotinylated human PD-L1 pre-incubated with the Fab, then added to plate-coated human PD-1-Fc (the blocked partner); streptavidin-HRP/TMB
T1 construct: construct not described

[5] = biological target: murine PD-L1 coupled to human Fc (murine; human) (UniProt Q9EP73); assay: ELISA; plate coated with mouse PD-L1-Fc, Fab added (concentration not given), goat anti-human Fab-HRP/TMB, absorbance 450-670 nm
[6] = biological target: biotinylated murine PD-L1 (murine) (UniProt Q9EP73); assay: blocking ELISA; biotinylated murine PD-L1 pre-incubated with the Fab, then added to plate-coated murine PD-1-Fc (the blocked partner); streptavidin-HRP/TMB
[7] = biological target: human PD-L1 coupled to human Fc (human) (UniProt Q9NZQ7); assay: ELISA; plate coated with human PD-L1-Fc, Fab added (concentration not given), goat anti-human Fab-HRP/TMB, absorbance 450-670 nm
[8] = biological target: human PD-L1 (ELISA antigen, construct not stated) (human) (UniProt Q9NZQ7); assay: screening ELISA of Fabs
[9] = biological target: human PD-L1 coupled to human Fc (human) (UniProt Q9NZQ7); assay: ELISA, PD-L1-Fc coated
[10] = biological target: murine PD-L1 coupled to human Fc (murine; human) (UniProt Q9EP73); assay: ELISA, PD-L1-Fc coated
[11] = biological target: T2, human PD-L1 expressed on cells (human, UniProt Q9NZQ7 19-290); assay: flow cytometry on MDA-MB-231 cells
T2 construct: whole, on cells; also called PD-L1 transfected HEK 293 cells; HEK293-6E cells transfected with human PD-L1

[12] = biological target: T2, human PD-L1 expressed on cells; assay: flow cytometry blocking assay; antibody mixed with human PD-1-PE (the blocked partner) and added to HEK293 cells transfected with human PD-L1
From the text: Cells were washed 3 times with PBS and all data were collected on a BD FACSCanto II (BD Bioscience) and analysed on BD FACSDiva software (BD Bioscience).

[13] = biological target: biotinylated murine PD-L1 (murine) (UniProt Q9EP73); assay: blocking ELISA; murine PD-L1 binding to murine PD-1 (the blocked partner) in the presence of the IgG
[14] = biological target: T2, human PD-L1 expressed on cells; assay: flow cytometry on MDA-MB-231 human breast cancer cells constitutively expressing PD-L1; MFI
[15] = biological target: human PD-L1 (ELISA antigen, construct not stated) (human) (UniProt Q9NZQ7); assay: ELISA on different antigens
[16] = biological target: cynomolgus PD-L1 (ELISA antigen, construct not stated) (cynomolgus) (UniProt G7PSE7); assay: ELISA on different antigens
[17] = biological target: mouse PD-L1 (ELISA antigen, construct not stated) (mouse) (UniProt Q9EP73); assay: ELISA on different antigens
[18] = biological target: human PD-L1 (ELISA antigen, construct not stated) (human) (UniProt Q9NZQ7); assay: ELISA on plate-bound antigen (sheet legend: huPD-L1-Fc); antibody concentration not given
[19] = biological target: T1, biotinylated human PD-L1; assay: ELISA; antibody coated on the plate at 2 ug/mL, biotinylated human PD-L1 titrated (x axis: Human PD-L1, nM), streptavidin-HRP/TMB
Protocol: Binding was measured by ELISA. Antibodies were coated onto maxisorp plates at 2 μg/mL in coating buffer and incubated overnight at 4° C. The next day, plates were washed with wash buffer (PBS+0.05% Tween-20), and blocker with casein for 1 hour, at room temperature. Plates were then washed again using wash buffer. […] Plates were then washed again using wash buffer. […] Plates were then washed again using wash buffer. Finally, TMB was added to develop the ELISA; TMB conversion by HRP was stopped using 1M H—Cl.

[20] = biological target: cynomolgus PD-L1 (ELISA antigen, construct not stated) (cynomolgus) (UniProt G7PSE7); assay: ELISA on plate-bound antigen (sheet legend: cyPD-L1-Fc); antibody concentration not given
[21] = biological target: mouse PD-L1 (ELISA antigen, construct not stated) (mouse) (UniProt Q9EP73); assay: back-reference to the earlier binding experiments
[22] = biological target: T1, biotinylated human PD-L1; assay: avidity ELISA, biotinylated human PD-L1 on neutravidin, antibody titrated, anti-human Fc-HRP
[23] = biological target: mouse PD-L1 (ELISA antigen, construct not stated) (mouse) (UniProt Q9EP73); assay: ELISA on plate-bound antigen (sheet legend: moPD-L1-Fc); antibody concentration not given
[24] = biological target: T1, biotinylated human PD-L1; assay: avidity ELISA; biotinylated human PD-L1 (0.2 ug/mL) captured on a neutravidin plate, IgG titrated, anti-human Fc-HRP/TMB
Protocol: Neutravidin was coated onto maxisorp plates at 2 μg/mL in coating buffer and incubated overnight at 4° C. The next day, plates were washed with wash buffer (PBS+0.05% Tween-20), and blocker with casein for 1 hour, at room temperature. Plates were then washed again using wash buffer. […] Plates were then washed again using wash buffer. The different antibodies were then added at various concentrations, and incubated for 1 hour at room temperature. Plates were then washed again using wash buffer. Anti-human Fc-HRP was then added and incubated for 1 hour at room temperature. Plates were then washed again using wash buffer. Finally, TMB was added to develop the ELISA; TMB conversion by HRP was stopped using 1M H—Cl.

[25] = biological target: T1, biotinylated human PD-L1; assay: ELISA, antibody coated, biotinylated human PD-L1 titrated, streptavidin-HRP

B1: anti-PD-L1 antibody C4 (format not stated in the example) (antibody, V domains shown)
VH: QVQLQQSGAEVKKPGSSVKVSCKASGGTFSSYAISWVRQAPGQGLEWMGRIIPILGIANYAQKFQGRVTITADKSTSTAYMELSSLRSEDTAVYYCARGGYGGNSLYAFDIWGQGTMVTVSS
VL: QSVVTQPPSVSAAPGQKVTISCSGSSSNIGNNYVSWYQQLPGTAPKLLIYDNNERLSGIPDRFSGSKSGTSATLGISGLQTGDEADYYCGTWDSSLSVVVFGGGTKLTVL
notes: detected with anti-human Fc-HRP in the avidity ELISA, so it carried an Fc there
binding [1]: binds

B5: anti-PD-L1 antibody H12 (format not stated in the example) (antibody, V domains shown)
VH: EVQLVQSGAEVKKPGASVKVSCKASGGTFSSYAISWVRQAPGQGLEWMGRIIPILGIANYAQKFQGRVTITADKSTSTAYMELSSLRSEDTAVYYCARSGHGYSYGAFDYWGQGTL
VL: QSVLTQPPSVSGAPGQRVTISCTGSSSNIGAGYDVHWYQQLPGTAPKLLIYGNSNRPSGVPDRFSGSKSGTSASLAITGLQAEDEADYYCQSYDSSLSGSYVVFGGGTKLTVL
binding [15]: binds
binding [16]: binds
binding [17]: binds
binding [1]: binds
binding [18]: binds
binding [19]: binds
binding [20]: binds
binding [21]: binds
binding [22]: binds
binding [23]: binds
binding [24]: binds
binding [25]: binds

Second part, the binder after the results:

binding [2]: binds
binding [3]: binds
binding [4]: binds
binding [5]: binds
binding [6]: binds
binding [7]: binds
binding [8]: binds
binding [9]: binds
binding [10]: binds
B2: anti-PD-L1 antibody clone H12, Fab format (Fab, V domains shown)
VH: EVQLVQSGAEVKKPGASVKVSCKASGGTFSSYAISWVRQAPGQGLEWMGRIIPILGIANYAQKFQGRVTITADKSTSTAYMELSSLRSEDTAVYYCARSGHGYSYGAFDYWGQGTL
VL: QSVLTQPPSVSGAPGQRVTISCTGSSSNIGAGYDVHWYQQLPGTAPKLLIYGNSNRPSGVPDRFSGSKSGTSASLAITGLQAEDEADYYCQSYDSSLSGSYVVFGGGTKLTVL

binding [11]: binds
binding [12]: binds
binding [13]: binds
binding [14]: binds
B3: anti-PD-L1 antibody H12, IgG1 format (antibody, V domains shown)
VH: EVQLVQSGAEVKKPGASVKVSCKASGGTFSSYAISWVRQAPGQGLEWMGRIIPILGIANYAQKFQGRVTITADKSTSTAYMELSSLRSEDTAVYYCARSGHGYSYGAFDYWGQGTL
VL: QSVLTQPPSVSGAPGQRVTISCTGSSSNIGAGYDVHWYQQLPGTAPKLLIYGNSNRPSGVPDRFSGSKSGTSASLAITGLQAEDEADYYCQSYDSSLSGSYVVFGGGTKLTVL
notes: IgG1

binding [12]: binds
B4: anti-PD-L1 antibody H12, IgG4 format (antibody, V domains shown)
VH: EVQLVQSGAEVKKPGASVKVSCKASGGTFSSYAISWVRQAPGQGLEWMGRIIPILGIANYAQKFQGRVTITADKSTSTAYMELSSLRSEDTAVYYCARSGHGYSYGAFDYWGQGTL
VL: QSVLTQPPSVSGAPGQRVTISCTGSSSNIGAGYDVHWYQQLPGTAPKLLIYGNSNRPSGVPDRFSGSKSGTSASLAITGLQAEDEADYYCQSYDSSLSGSYVVFGGGTKLTVL
notes: IgG4
